Data on 2 substances can be found in PMC10630885.

Chains of the proteins cited; added tags and fusions are not shown. Residues count along the entry.
UniProt P11021, residues 19-654: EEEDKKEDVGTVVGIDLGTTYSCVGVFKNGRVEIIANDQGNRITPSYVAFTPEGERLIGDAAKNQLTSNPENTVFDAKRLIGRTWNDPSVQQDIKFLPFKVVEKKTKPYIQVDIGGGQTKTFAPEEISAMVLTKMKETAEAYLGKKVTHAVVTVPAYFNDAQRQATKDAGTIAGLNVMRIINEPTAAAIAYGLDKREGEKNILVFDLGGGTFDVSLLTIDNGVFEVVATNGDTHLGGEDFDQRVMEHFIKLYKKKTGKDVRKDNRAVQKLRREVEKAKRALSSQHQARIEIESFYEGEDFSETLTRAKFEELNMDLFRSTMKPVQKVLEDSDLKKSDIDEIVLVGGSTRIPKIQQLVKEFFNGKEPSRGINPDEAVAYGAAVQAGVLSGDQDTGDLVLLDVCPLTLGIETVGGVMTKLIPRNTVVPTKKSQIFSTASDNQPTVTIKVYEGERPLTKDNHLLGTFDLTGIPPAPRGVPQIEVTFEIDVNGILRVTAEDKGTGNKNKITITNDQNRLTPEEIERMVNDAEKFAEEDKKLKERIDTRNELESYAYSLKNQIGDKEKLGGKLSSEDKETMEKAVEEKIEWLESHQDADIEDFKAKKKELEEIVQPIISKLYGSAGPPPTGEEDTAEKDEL
UniProt P30101, residues 25-505: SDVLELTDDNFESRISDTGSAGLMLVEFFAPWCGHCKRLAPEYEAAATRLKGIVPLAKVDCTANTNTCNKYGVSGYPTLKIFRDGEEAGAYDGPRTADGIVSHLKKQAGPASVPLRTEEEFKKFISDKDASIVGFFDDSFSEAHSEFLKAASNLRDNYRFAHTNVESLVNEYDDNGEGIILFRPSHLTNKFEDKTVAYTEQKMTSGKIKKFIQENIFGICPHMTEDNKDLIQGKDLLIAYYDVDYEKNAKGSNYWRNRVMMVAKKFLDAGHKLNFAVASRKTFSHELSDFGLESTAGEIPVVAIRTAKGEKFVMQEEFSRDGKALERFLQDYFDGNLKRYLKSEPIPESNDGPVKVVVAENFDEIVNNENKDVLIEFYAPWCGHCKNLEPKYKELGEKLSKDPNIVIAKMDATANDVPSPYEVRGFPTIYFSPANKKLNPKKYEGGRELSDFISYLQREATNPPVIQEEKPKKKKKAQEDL

No constants are given. Whether binding was seen depends on the method and setting. Binding seen in cells or lysates may run through a third protein. Some entries that bind do so weakly or less than the wild type. For some assays here: Where a sequence is shown, tags or fusion partners need not be part of it.

The target in assay [1] is T1, HA-tagged NRF3-BioID fusion protein (human) (UniProt Q9Y4A8).
T1 sequence: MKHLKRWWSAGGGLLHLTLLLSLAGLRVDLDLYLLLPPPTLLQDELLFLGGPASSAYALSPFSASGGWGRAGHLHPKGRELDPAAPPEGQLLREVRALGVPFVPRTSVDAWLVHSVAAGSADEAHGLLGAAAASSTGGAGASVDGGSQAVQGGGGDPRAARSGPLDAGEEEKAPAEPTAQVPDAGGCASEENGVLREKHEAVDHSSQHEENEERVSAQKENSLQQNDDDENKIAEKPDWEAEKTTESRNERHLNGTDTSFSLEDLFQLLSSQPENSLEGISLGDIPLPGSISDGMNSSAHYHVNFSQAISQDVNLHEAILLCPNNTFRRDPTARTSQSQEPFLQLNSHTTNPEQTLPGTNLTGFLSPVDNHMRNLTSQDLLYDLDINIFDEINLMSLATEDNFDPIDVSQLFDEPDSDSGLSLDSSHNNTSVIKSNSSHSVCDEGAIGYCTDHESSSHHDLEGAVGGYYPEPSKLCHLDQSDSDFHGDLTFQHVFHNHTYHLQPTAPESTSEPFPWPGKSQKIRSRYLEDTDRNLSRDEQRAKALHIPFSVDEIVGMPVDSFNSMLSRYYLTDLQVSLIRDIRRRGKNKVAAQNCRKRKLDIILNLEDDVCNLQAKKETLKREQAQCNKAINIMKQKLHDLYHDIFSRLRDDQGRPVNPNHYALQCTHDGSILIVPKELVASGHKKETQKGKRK
Description: co-IP; anti-HA magnetic beads, overnight at 4°C; lysates of transduced SCC13 cells cultured with or without Dox (1 μg/ml) and with MG-132 (10 μM); IP buffer 0.05% NP-40, 10% glycerol, 150 mM NaCl, 5 mM HEPES pH 7.4, 5 mM EDTA, 0.25% deoxycholate; partners detected by Western blot. For orientation: In western blotting, separated proteins are transferred to a membrane and probed.

The target of assay [2] is T2, NRF3 (endogenous) (human (endogenous in SCC13)) (UniProt Q9Y4A8).
T2 sequence: T1 sequence
The assay can be described thus: proximity ligation; Duolink In Situ Red kit on fixed, permeabilised SCC13 cells; transduced cells (1 μg/ml Dox, 24 h) with anti-HA and anti-PDIA3; SCC13 wt cells with anti-NRF3 and anti-PDIA3 or anti-HSPA5.

The target in assay [3] is T1, HA-tagged NRF3-BioID fusion protein (human). The description is as above.

On to “heat shock protein A5 (HSPA5) (from UniProt P11021 19-654)”, for which the binding result in assay [1] and in assay [2] was “binds” each time.
Consider “protein disulfide-isomerase A3 (PDIA3) (from UniProt P30101 25-505)”, for which the binding result in assay [1], in assay [3] and in assay [2] was “binds” throughout.
